We go through one substance from paper PMC6182170.

Protein sequences, listed by entry. Tags and fused reporters are not part of them. Lines headed by an entry give the natural chain unless they say otherwise; changes in a name come on top.
UniProt Q22618: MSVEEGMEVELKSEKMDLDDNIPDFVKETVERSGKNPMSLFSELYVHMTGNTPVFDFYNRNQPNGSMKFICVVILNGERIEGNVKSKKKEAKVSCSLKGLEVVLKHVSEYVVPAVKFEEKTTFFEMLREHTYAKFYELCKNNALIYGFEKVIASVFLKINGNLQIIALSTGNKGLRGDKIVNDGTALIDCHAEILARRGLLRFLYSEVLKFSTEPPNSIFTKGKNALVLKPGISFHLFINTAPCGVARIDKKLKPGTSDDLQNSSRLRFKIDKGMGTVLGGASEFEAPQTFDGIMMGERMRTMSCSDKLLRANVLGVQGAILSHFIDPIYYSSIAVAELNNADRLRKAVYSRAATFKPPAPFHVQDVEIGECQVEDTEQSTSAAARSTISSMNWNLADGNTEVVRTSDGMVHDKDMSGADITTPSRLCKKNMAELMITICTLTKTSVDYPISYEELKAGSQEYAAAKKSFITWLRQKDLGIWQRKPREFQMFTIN
UniProt Q9U3D6: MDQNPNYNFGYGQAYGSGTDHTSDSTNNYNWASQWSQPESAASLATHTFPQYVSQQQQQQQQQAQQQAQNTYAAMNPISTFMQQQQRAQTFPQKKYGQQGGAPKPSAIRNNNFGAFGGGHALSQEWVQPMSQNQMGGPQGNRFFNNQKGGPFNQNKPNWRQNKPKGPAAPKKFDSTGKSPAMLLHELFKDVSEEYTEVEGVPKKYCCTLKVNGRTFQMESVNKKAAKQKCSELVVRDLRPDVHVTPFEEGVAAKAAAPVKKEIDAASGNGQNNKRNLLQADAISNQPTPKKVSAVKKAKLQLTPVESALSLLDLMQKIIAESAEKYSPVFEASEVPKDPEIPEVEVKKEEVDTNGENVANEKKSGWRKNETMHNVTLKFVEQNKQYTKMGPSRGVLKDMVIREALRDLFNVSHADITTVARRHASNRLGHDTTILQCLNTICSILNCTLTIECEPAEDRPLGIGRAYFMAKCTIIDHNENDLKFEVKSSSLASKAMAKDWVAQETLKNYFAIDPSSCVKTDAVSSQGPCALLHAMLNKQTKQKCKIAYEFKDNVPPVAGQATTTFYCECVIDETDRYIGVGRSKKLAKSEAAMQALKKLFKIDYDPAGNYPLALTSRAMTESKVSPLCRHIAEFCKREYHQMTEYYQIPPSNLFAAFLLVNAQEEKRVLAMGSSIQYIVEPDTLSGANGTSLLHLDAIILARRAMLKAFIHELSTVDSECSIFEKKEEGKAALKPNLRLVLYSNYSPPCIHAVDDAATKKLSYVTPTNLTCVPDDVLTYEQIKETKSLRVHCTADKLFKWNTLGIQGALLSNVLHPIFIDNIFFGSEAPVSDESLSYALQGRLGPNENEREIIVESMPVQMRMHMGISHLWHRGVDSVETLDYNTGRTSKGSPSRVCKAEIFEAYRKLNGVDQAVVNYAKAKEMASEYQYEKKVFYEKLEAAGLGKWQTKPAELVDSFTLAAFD

The assay deals with Recombinant WT ADR-2 (C. elegans) (UniProt Q22618). The experiment in a line: condition: 3 nM ADR-1 protein; 5 nM ADR-2 loaded on the beads; pull-down; in vitro pulldown: recombinant ADR-2 (5 nM) held on anti-rabbit IgG Dynabeads by ADR-2 antibody PA6496, 4°C, BSA block; ADR-1 proteins (3 nM) added in EMSA buffer (50 mM KCl, 10 mM Tris-HCl pH 8.0, 10% glycerol, 1 mM MgCl2) for 1 h, with or without 46 bp dsRNA (0-10 nM); also after micrococcal nuclease treatment of the WT proteins; immunoblot with ADR-1 and ADR-2 antibodies; both purified.

These are yes or no findings as the source states them, for the method shown.

As to “Recombinant ADR-1 dsRBD1 + dsRBD2 double mutant (KKxxK into EAxxA in both dsRBDs) (from UniProt Q9U3D6)”, the binding result is listed as “no binding”.
